For test [1], the target named is cyclin D3 (human (endogenous in MCF7)) (UniProt P30281). The experiment in a line: co-IP; anti-cyclin D3 IP with IgG as control; cold NP-40 lysis buffer (0.25% NP-40, 50 mM Tris pH 8.0, 100 mM sodium chloride); immune complexes captured on Protein G Sepharose; immunoblot. A general note: A western blot detects proteins with antibodies after separation by electrophoresis.

Protein sequences, listed by entry. Tags and fused reporters are not part of them.
UniProt P30281: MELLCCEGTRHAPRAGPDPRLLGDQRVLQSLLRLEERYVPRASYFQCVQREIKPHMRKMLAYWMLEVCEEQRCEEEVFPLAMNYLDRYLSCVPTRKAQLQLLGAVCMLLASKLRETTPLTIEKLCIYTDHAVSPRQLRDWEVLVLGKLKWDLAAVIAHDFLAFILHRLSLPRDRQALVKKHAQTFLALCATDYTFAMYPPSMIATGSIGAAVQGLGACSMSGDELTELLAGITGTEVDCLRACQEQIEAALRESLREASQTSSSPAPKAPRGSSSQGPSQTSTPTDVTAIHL
UniProt P08727: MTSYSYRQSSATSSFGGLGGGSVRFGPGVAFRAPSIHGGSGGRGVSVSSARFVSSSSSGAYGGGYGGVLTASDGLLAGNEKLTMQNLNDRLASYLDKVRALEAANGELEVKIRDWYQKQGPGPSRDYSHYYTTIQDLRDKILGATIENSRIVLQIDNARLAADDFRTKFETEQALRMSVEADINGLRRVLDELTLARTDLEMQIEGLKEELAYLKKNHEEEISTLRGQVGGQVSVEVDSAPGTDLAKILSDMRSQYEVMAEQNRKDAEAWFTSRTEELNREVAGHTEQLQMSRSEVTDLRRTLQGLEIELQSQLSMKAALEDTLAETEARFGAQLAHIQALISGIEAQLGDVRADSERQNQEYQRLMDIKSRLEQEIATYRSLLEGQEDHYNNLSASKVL

Test [2] concerns the target Keratin 19 (human (endogenous in MCF7)) (UniProt P08727). In words: co-IP; anti-K19 IP with IgG as control; cold Triton lysis buffer (1% Triton X-100, 40 mM HEPES pH 7.5, 120 mM sodium chloride, 1 mM EDTA) supplemented with 2% empigen; immune complexes captured on Protein G Sepharose; immunoblot.

No constants are given. Whether binding was seen depends on the method and setting. In cells and extracts the contact can be indirect. Some results given as binding are weak or reduced against the parent protein; the word gives no strength.

In the case of Keratin 19 (from UniProt P08727 1-400), the binding result in test [1] was “binds”.

Regarding cyclin D3 (from UniProt P30281 1-292), the binding entry in test [2] was “binds”.
